In PMC12283378 one finds binding data, which are given here for one molecule.

These are yes or no findings as the source states them, for the method shown. Some results given as binding are weak or reduced against the parent protein; the word gives no strength. Tags and fused reporters may be left off the sequences shown.

The test concerns the target T1, LHA1 expressed in yeast, phosphorylated at the penultimate threonine (tomato (Solanum lycopersicum)) (UniProt P22180).
T1 sequence (chain, phospho-threonine at the penultimate residue of the regulatory C-terminus (T955)): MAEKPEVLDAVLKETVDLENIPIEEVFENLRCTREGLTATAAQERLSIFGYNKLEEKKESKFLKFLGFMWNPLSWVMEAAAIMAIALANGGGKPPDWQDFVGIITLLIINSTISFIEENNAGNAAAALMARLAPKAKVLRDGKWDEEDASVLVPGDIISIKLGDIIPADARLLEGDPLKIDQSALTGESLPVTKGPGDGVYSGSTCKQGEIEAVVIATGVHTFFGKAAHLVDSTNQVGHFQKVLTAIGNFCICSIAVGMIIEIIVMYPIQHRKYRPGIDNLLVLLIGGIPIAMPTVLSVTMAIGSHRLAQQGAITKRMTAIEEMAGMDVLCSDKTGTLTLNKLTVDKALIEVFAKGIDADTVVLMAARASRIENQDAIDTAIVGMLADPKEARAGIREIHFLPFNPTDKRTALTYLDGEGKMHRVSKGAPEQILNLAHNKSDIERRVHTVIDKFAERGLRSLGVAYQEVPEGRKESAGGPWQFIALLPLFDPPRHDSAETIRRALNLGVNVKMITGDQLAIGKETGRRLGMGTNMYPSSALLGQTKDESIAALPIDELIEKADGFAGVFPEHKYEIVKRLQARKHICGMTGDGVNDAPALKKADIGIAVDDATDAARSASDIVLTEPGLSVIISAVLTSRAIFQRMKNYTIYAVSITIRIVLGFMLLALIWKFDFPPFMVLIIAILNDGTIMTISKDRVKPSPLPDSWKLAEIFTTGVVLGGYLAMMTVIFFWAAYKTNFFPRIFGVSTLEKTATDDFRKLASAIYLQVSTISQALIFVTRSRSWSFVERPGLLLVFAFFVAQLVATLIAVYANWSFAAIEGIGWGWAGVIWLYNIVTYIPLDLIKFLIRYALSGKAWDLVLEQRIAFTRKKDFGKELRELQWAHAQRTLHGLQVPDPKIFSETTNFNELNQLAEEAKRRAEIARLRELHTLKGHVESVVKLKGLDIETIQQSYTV
In words: far-Western, overlay or dot blot; yeast microsomal fractions (100 µg) separated by SDS-PAGE and blotted to nitrocellulose; overlay with 40 µg RGS-His 14-3-3 (GF14ø) and 5 µM fusicoccin in 10 ml far-western buffer (20 mM MES, 130 mM NaCl, 10 mM MgSO4, 100 µM CaCl2, pH 6.5), 1 h, room temperature; detected with anti-RGS-6x-His; only the binder purified.

B1: RGS-His epitope tagged 14-3-3 (GF14ø) protein (protein, UniProt P46077 1-267)
chain: MAAPPASSSAREEFVYLAKLAEQAERYEEMVEFMEKVAEAVDKDELTVEERNLLSVAYKNVIGARRASWRIISSIEQKEESRGNDDHVTTIRDYRSKIESELSKICDGILKLLDTRLVPASANGDSKVFYLKMKGDYHRYLAEFKTGQERKDAAEHTLTAYKAAQDIANAELAPTHPIRLGLALNFSVFYYEILNSPDRACNLAKQAFDEAIAELDTLGEESYKDSTLIMQLLRDNLTLWTSDMQDESPEEIKEAAAPKPAEEQKEI
As for B1, the binding result is recorded as “binds”.
